Reference: PMC10845965, “Gold(I) ion and the phosphine ligand are necessary for the anti-Toxoplasma gondii activity of auranofin” (Microbiology Spectrum, 2024)

Assays:
HFF host cells = test: Host cell viability and TD50 determination; type: cell-based, human; settings: ratio of TD50 on host cells over IC50 on parasites
Protocol: Confluent monolayers of HFF host cells (approximately 1 × 10^4) plated in clear bottom 96-well plates were treated with twofold dilutions of compounds of interest. After 5 days of incubation, 15 µL of dye solution (tetrazolium salt) was added to each well. The plates were incubated at 37°C for 4 hours; then, the reaction was stopped to solubilize the formazan product (Cell Titer 96 Nonradioactive Cell Proliferation Assay Promega). Absorbance at 570 ʎ (A570) was recorded using a multimode microplate plate reader (Molecular Devices Spectramax i5, SoftMax Pro 7.0.2 Software). The A570 absorbance reading is directly proportional to the number of viable cells. The values are presented as percentages of cell viability relative to the untreated controls (defined as 100% survival) and plotted against the log of compound concentrations. The log (auranofin derivative) vs cell viability curve with variable slope was generated to calculate TD50 values.

T. gondii tachyzoites = test: Quantitative detection of gold by ICP-MS; type: cell-based, Toxoplasma gondii; settings: auranofin 10 µM, 4 hours

Compound | In vitro therapeutic index (HFF host cells) | gold concentration in parasites (ICP-MS) (T. gondii tachyzoites; extracellular parasites) [ppb] | gold concentration in parasites (ICP-MS) (T. gondii tachyzoites; intracellular parasites (exposed inside host cells)) [ppb]
[Cl][Au].c1ccc(P(c2ccccc2)c2ccccc2)cc1 [Compound 31] | 126.2 | – | –
[Cl][Au][PH](Cc1ccccc1)(c1ccccc1)c1ccccc1 [Compound 6] | 10.6 | – | –
CC(=O)OC[C@H]1O[C@@H]([S-])[C@H](OC(C)=O)[C@@H](OC(C)=O)[C@@H]1OC(C)=O.CCP(CC)CC.[Au+] [Auranofin] | 9.2 | 7.181 | 3.701
